Positions count from the first letter of the chain named. No constants are given. Whether binding was seen depends on the method and setting. In cells and extracts the contact can be indirect. Some binding calls cover weakened binding; strength is not graded here. Tags and fused reporters may be left off the sequences shown.
Legend:
[1] = target: T1, Bdp1-Myc (Myc-tagged Bdp1, subunit of TFIIIB) (S. cerevisiae) (UniProt P46678); assay: co-IP; S phase-synchronized cells (CDK1 or cdk1-as1 background); lysis buffer 50 mM HEPES-KOH pH 7.5, 100 mM KCl, 5 mM MgCl2, 1 mM EDTA, 1% Triton, 3 mM DTT, 5% glycerol; Bdp1 immunoprecipitated with Myc antibodies on magnetic beads; western blot with anti-Myc and anti-HA
T1 sequence: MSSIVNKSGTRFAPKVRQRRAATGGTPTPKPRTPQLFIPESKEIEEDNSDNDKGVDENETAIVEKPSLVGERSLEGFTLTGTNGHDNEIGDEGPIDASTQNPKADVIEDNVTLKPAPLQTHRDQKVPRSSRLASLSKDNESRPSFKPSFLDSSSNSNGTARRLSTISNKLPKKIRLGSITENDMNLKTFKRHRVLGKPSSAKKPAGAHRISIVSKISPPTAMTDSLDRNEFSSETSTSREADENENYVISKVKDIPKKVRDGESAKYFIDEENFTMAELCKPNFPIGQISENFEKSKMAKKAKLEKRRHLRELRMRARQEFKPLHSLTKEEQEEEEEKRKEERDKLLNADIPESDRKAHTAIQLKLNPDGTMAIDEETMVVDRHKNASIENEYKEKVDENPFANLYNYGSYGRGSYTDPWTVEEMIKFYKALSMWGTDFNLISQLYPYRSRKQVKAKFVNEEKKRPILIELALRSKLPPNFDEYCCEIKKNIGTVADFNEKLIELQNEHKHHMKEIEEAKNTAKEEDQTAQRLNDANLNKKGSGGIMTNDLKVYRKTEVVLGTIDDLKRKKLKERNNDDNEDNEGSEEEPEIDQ

[2] = target: T2, Bdp1-3TA-Myc (non-phosphorylatable Bdp1, T26, T28 and T33 substituted by alanine) (S. cerevisiae) (UniProt P46678); assay: as above
T2 sequence: T1 sequence with T26A, T28A, T33A

B1: Tfc4-HA (HA-tagged Tfc4, subunit of TFIIIC) (protein, UniProt P33339 1-1025)
chain: MAAGKLKKEQQNQSAERESADTGKVNDEDEEHLYGNIDDYKHLIQDEEYDDEDVPHDLQLSEDEYNSERDSSLLAEFSDYGEISEDDEEDFMNAIREASNFKVKKKKKNDKGKSYGRQRKERVLDPEVAQLLSQANEAFVRNDLQVAERLFNEVIKKDARNFAAYETLGDIYQLQGRLNDCCNSWFLAAHLNASDWEFWKIVAILSADLDHVRQAIYCFSRVISLNPMEWESIYRRSMLYKKTGQLARALDGFQRLYMYNPYDANILRELAILYVDYDRIEDSIELYMKVFNANVERREAILAALENALDSSDEESAAEGEDADEKEPLEQDEDRQMFPDINWKKIDAKYKCIPFDWSSLNILAELFLKLAVSEVDGIKTIKKCARWIQRRESQTFWDHVPDDSEFDNRRFKNSTFDSLLAAEKEKSYNIPIDIRVRLGLLRLNTDNLVEALNHFQCLYDETFSDVADLYFEAATALTRAEKYKEAIDFFTPLLSLEEWRTTDVFKPLARCYKEIESYETAKEFYELAIKSEPDDLDIRVSLAEVYYRLNDPETFKHMLVDVVEMRKHQVDETLHRISNEKSSNDTSDISSKPLLEDSKFRTFRKKKRTPYDAERERIERERRITAKVVDKYEKMKKFELNSGLNEAKQASIWINTVSELVDIFSSVKNFFMKSRSRKFVGILRRTKKFNTELDFQIERLSKLAEGDSVFEGPLMEERVTLTSATELRGLSYEQWFELFMELSLVIAKYQSVEDGLSVVETAQEVNVFFQDPERVKMMKFVKLAIVLQMDDEEELAENLRGLLNQFQFNRKVLQVFMYSLCRGPSSLNILSSTIQQKFFLRQLKAFDSCRYNTEVNGQASITNKEVYNPNKKSSPYLYYIYAVLLYSSRGFLSALQYLTRLEEDIPDDPMVNLLMGLSHIHRAMQRLTAQRHFQIFHGLRYLYRYHKIRKSLYTDLEKQEADYNLGRAFHLIGLVSIAIEYYNRVLENYDDGKLKKHAAYNSIIIYQQSGNVELADHLMEKYLSI
Q: How did the binding [1] turn out when B1 was run?
A: Its binding is “binds”.

Q: What about the binding [2] of the same binder?
A: The binding was “binds”.

Reference: publication PMC6294503
